Here are results for 1 sequence from publication PMC5996148.

By UniProt entry, the sequences of proteins in these tests, tags left out. Where a name states a change or a piece, a line headed by the entry shows the natural chain unless it says otherwise.
UniProt Q15527: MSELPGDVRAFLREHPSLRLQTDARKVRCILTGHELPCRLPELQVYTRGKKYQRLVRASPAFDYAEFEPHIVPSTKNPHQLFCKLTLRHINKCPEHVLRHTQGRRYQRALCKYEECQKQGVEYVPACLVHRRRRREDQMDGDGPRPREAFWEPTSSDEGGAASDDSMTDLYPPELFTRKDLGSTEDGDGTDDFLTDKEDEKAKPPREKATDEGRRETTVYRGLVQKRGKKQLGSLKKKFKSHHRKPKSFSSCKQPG

Test systems include STX7 (human); STYX (human); SULF1 (human); SULT2B1 (human); SURF4 (human); SURF5 (human); SUSD4 (human); SYCE1 (human); SYMPK (human); SYNGR2 (human); SYNGR4 (human); SYVN1 (human); Secretagogin (human); Selenoprotein P (human); Septin-2 (human).
What all share (test): protein microarray (ProtoArray v5.0), streptavidin-Alexa Fluor 647
What all share (details): 3'-biotin; 20 mM Tris (pH 7.5), 5 mM MgCl2, 100 mM KCl, 0.1% Tween-20, A/T-rich and random oligonucleotide blockers; temperature not stated; high values mean tight binding

Another assay has as its target SURF2 (UniProt Q15527).
Assay [1] concerns SWI/SNF-related matrix-associated actin-dependent regulator of chromatin subfamily D member 2 (human).
Another assay has as its target T1, SYTL2 (UniProt Q9HCH5).
T1 sequence: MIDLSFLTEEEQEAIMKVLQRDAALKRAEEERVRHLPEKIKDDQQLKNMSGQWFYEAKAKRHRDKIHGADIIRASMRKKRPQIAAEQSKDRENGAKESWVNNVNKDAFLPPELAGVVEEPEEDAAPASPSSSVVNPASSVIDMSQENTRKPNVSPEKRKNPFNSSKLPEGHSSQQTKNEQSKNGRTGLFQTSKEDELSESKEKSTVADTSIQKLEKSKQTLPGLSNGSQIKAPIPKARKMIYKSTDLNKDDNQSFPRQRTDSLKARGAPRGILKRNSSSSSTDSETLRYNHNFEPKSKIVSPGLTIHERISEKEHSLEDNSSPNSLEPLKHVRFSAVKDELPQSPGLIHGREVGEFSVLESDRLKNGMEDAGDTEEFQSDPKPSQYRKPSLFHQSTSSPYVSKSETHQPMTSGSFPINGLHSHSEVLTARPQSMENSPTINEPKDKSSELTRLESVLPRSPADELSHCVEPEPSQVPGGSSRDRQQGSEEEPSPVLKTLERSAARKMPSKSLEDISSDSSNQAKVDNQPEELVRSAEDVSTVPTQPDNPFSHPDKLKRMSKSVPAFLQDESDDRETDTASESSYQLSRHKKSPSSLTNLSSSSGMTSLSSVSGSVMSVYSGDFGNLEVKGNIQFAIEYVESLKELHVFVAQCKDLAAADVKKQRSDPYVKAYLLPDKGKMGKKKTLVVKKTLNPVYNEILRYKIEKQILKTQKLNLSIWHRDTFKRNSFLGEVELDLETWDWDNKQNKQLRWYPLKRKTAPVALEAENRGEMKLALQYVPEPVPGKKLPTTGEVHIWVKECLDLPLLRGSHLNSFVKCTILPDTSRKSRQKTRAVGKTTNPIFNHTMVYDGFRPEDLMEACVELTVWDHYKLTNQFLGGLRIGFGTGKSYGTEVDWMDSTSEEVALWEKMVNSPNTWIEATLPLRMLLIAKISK

The test system of assay [2] is Scavenger receptor cysteine-rich domain-containing protein LOC284297 (human).
Assay [3] deals with Selenium-binding protein 1 (human).

Several values for one entry are separate records, joined by “and”; a condition that tells them apart may be missing. Equal values may be shown once. The list shows a part of the results. For some assays here: The exact form of the protein is not confirmed.

“GGGGACAGGGGTATGGGGAGGGG [G4-3 biotinylated (CtG)]”: the binding signal with STX7 (human) was -0.309 z-score; in the assay with STYX (human), -0.316 z-score; with SULF1 (human) it was -0.283 z-score; in the assay with SULT2B1 (human), -0.335 z-score; with SURF2, 4.37 z-score; in the assay with SURF4 (human), -0.336 z-score. Also, the binding signal in the assay with SURF5 (human) is -0.331 z-score; in the assay on SUSD4 (human) it was -0.319 z-score; in assay [1], -0.336 z-score; in the assay with SYCE1 (human), -0.323 z-score and -0.316 z-score; in the assay with SYMPK (human), -0.323 z-score; with SYNGR2 (human) it was -0.326 z-score. Moreover, the binding signal in the assay with SYNGR4 (human) was -0.326 z-score; with SYTL2, 3.17 z-score; in the assay on SYVN1 (human) it was -0.311 z-score; in [2], -0.337 z-score; in the assay with Secretagogin (human), -0.34 z-score; in [3], -0.329 z-score. The binding signal in the assay on Selenoprotein P (human) is -0.328 z-score; in the assay with Septin-2 (human), -0.305 z-score.
